Publication PMC5324674
Positions count from the first letter of the chain named. These are yes or no findings as the source states them, for the method shown. Some results given as binding are weak or reduced against the parent protein; the word gives no strength. Tags and fused reporters may be left off the sequences shown.

The chains behind the UniProt entries cited, without tags or fusion partners.
UniProt Q8L7Z3: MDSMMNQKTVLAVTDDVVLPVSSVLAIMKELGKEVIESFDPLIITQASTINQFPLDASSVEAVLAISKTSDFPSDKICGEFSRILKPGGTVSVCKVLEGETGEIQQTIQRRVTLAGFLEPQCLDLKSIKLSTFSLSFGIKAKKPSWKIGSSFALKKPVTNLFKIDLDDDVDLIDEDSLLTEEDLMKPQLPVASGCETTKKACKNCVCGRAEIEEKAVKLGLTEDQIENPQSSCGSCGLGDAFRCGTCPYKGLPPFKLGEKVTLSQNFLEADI

Tests used:
Assay in all cases: two-hybrid; Invitrogen ProQuest Two-Hybrid System with Gateway Technology; binary tests of BD and AD fusions; growth on dropout histidine medium with 100 mM 3-AT
[1] = biological target: T1, TAH18, ProQuest two‐hybrid fusion (Arabidopsis thaliana) (UniProt Q6NPS8)
T1 sequence: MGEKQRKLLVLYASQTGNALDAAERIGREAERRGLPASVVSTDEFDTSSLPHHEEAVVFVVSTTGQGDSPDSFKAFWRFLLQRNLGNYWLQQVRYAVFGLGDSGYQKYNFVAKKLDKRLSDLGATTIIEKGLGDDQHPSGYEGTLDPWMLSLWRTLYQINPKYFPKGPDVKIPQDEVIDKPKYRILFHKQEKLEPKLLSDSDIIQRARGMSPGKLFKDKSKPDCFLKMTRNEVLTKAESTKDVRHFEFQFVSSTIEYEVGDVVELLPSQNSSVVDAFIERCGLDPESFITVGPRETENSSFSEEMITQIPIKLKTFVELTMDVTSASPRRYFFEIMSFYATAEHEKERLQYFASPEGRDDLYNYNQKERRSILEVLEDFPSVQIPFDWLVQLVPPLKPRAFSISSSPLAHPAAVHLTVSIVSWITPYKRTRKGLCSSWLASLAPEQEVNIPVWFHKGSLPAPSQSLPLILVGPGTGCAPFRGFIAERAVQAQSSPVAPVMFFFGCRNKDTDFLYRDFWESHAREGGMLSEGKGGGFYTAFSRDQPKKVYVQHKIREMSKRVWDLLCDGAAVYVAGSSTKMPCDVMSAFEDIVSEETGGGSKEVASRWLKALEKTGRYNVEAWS

[2] = biological target: T2, NBP35‐C14A, ProQuest two‐hybrid fusion (Arabidopsis thaliana) (UniProt Q8H1Q2)
T2 sequence: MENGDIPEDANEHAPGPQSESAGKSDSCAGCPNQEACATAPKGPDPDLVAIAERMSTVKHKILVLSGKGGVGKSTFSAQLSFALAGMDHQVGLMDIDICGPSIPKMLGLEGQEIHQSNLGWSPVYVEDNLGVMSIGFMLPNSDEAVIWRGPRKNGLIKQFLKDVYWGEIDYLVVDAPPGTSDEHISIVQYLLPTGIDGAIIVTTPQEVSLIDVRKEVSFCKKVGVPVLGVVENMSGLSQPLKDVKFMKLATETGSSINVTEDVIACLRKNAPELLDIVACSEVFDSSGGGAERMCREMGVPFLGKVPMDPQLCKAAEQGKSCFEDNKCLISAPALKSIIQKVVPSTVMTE

[3] = biological target: T3, Nucleotide‐Binding Protein 35 kDa (NBP35), full‐length, ProQuest two‐hybrid fusion (Arabidopsis thaliana) (UniProt Q8H1Q2)
T3 sequence: T2 sequence with A14C

- binding [1]: binds
- binding [2]: binds weakly
- binding [3]: binds weakly
Substance: DRE2 (Derepressed for Ribosomal protein S14 Expression), full‐length, ProQuest two‐hybrid prey (from UniProt Q8L7Z3 1-272)
